Experimental findings from PMC6010280 are described below.

These are yes or no findings as the source states them, for the method shown. Binding seen in cells or lysates may run through a third protein. Here binding means that the protein was enriched with, or labelled near, the bait; the list need not be complete. No binding means not detected with the bait.

This assay concerns the target T1, intein-BHMT (betaine homocysteine S-methyltransferase) (R. norvegicus) (UniProt O09171).
T1 sequence: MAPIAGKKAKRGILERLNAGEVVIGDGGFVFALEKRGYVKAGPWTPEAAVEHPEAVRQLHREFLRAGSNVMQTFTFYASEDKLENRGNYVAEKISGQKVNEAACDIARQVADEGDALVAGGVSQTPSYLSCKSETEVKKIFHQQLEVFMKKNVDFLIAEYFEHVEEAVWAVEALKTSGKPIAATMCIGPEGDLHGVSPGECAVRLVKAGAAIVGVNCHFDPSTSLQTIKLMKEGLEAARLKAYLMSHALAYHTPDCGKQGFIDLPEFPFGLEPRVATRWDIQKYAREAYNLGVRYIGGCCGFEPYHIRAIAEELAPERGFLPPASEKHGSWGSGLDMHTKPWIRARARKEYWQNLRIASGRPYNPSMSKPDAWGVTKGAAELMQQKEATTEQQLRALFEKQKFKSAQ
Put plainly: affinity purification with mass spectrometry; same columns; all eluates of the intein-BHMT column compared with those of the bead-only and intein columns; only the target purified.

B1: aldolase b protein (ALDOB) (liver cytosol) (protein, UniProt P00884 1-364)
chain: MAHRFPALTSEQKKELSEIAQRIVANGKGILAADESVGTMGNRLQRIKVENTEENRRQFRELLFSVDNSISQSIGGVILFHETLYQKDSQGKLFRNILKEKGIVVGIKLDQGGAPLAGTNKETTIQGLDGLSERCAQYKKDGVDFGKWRAVLRISDQCPSSLAIQENANALARYASICQQNGLVPIVEPEVLPDGDHDLEHCQYVSEKVLAAVYKALNDHHVYLEGTLLKPNMLTAGHACTKKYTPEQVAMATVTALHRTVPAAVPSICFLSGGMSEEDATLNLNAIYRCPLPRPWKLSFSYGRALQASALAAWGGKAANKKATQEAFMKRAVANCQAAQGQYVHTGSSGAASTQSLFTASYTY
For the molecule B1, the binding result is “no binding”.

B2: carbamoyl phosphate synthetase 1 (protein, UniProt P07756 39-1500)
chain: LSVKAQTAHIVLEDGTKMKGYSFGHPSSVAGEVVFNTGLGGYSEALTDPAYKGQILTMANPIIGNGGAPDTTARDELGLNKYMESDGIKVAGLLVLNYSHDYNHWLATKSLGQWLQEEKVPAIYGVDTRMLTKIIRDKGTMLGKIEFEGQSVDFVDPNKQNLIAEVSTKDVKVFGKGNPTKVVAVDCGIKNNVIRLLVKRGAEVHLVPWNHDFTQMDYDGLLIAGGPGNPALAQPLIQNVKKILESDRKEPLFGISTGNIITGLAAGAKSYKMSMANRGQNQPVLNITNRQAFITAQNHGYALDNTLPAGWKPLFVNVNDQTNEGIMHESKPFFAVQFHPEVSPGPTDTEYLFDSFFSLIKKGKGTTITSVLPKPALVASRVEVSKVLILGSGGLSIGQAGEFDYSGSQAVKAMKEENVKTVLMNPNIASVQTNEVGLKQADAVYFLPITPQFVTEVIKAERPDGLILGMGGQTALNCGVELFKRGVLKEYGVKVLGTSVESIMATEDRQLFSDKLNEINEKIAPSFAVESMEDALKAADTIGYPVMIRSAYALGGLGSGICPNKETLMDLGTKAFAMTNQILVERSVTGWKEIEYEVVRDADDNCVTVCNMENVDAMGVHTGDSVVVAPAQTLSNAEFQMLRRTSINVVRHLGIVGECNIQFALHPTSMEYCIIEVNARLSRSSALASKATGYPLAFIAAKIALGIPLPEIKNVVSGKTSACFEPSLDYMVTKIPRWDLDRFHGTSSRIGSSMKSVGEVMAIGRTFEESFQKALRMCHPSVDGFTPRLPMNKEWPANLDLRKELSEPSSTRIYAIAKALENNMSLDEIVKLTSIDKWFLYKMRDILNMDKTLKGLNSESVTEETLRQAKEIGFSDKQISKCLGLTEAQTRELRLKKNIHPWVKQIDTLAAEYPSVTNYLYVTYNGQEHDIKFDEHGIMVLGCGPYHIGSSVEFDWCAVSSIRTLRQLGKKTVVVNCNPETVSTDFDECDKLYFEELSLERILDIYHQEACNGCIISVGGQIPNNLAVPLYKNGVKIMGTSPLQIDRAEDRSIFSAVLDELKVAQAPWKAVNTLNEALEFANSVGYPCLLRPSYVLSGSAMNVVFSEDEMKRFLEEATRVSQEHPVVLTKFIEGAREVEMDAVGKEGRVISHAISEHVEDAGVHSGDATLMLPTQTISQGAIEKVKDATRKIAKAFAISGPFNVQFLVKGNDVLVIECNLRASRSFPFVSKTLGVDFIDVATKVMIGESVDEKHLPTLEQPIIPSDYVAIKAPMFSWPRLRDADPILRCEMASTGEVACFGEGIHTAFLKAMLSTGFKIPQKGILIGIQQSFRPRFLGVAEQLHNEGFKLFATEATSDWLNANNVPATPVAWPSQEGQNPSLSSIRKLIRDGSIDLVINLPNNNTKFVHDNYVIRRTAVDSGIALLTNFQVTKLFAEAVQKARTVDSKSLFHYRQYSAGKAA
For the molecule B2, the binding entry is recorded as “no binding”.

B3: 10-formyltetrahydrofolate dehydrogenase (Aldh1l1) (protein, UniProt P28037 1-902)
chain: MKIAVIGQSLFGQEVYCQLRKEGHEVVGVFTIPDKDGKADPLGLEAEKDGVPVFKFPRWRARGQALPEVVAKYQALGAELNVLPFCSQFIPMEVINAPRHGSIIYHPSLLPRHRGASAINWTLIHGDKKGGFTIFWADDGLDTGDLLLQKECEVLPDDTVSTLYNRFLFPEGIKGMVQAVRLIAEGTAPRCPQSEEGATYEGIQKKETAKINWDQPAEAIHNWIRGNDKVPGAWTEACGQKLTFFNSTLNTSGLSTQGEALPIPGAHRPGVVTKAGLILFGNDDRMLLVKNIQLEDGKMMPASQFFKGSASSDLELTEAELATAEAVRSSWMRILPNVPEVEDSTDFFKSGAASVDVVRLVEEVKELCDGLELENEDVYMATTFRGFIQLLVRKLRGEDDESECVINYVEKAVNKLTLQMPYQLFIGGEFVDAEGSKTYNTINPTDGSVICQVSLAQVSDVDKAVAAAKEAFENGLWGKINARDRGRLLYRLADVMEQHQEELATIEALDAGAVYTLALKTHVGMSIQTFRYFAGWCDKIQGATIPINQARPNRNLTLTKKEPVGVCGIVIPWNYPLMMLSWKTAACLAAGNTVVIKPAQVTPLTALKFAELTLKAGIPKGVVNILPGSGSLVGQRLSDHPDVRKIGFTGSTEVGKHIMKSCALSNVKKVSLELGGKSPLIIFADCDLNKAVQMGMSSVFFNKGENCIAAGRLFVEESIHNQFVQKVVEEVEKMKIGNPLERDTNHGPQNHEAHLRKLVEYCQRGVKEGATLVCGGNQVPRPGFFFQPTVFTDVEDHMYIAKEESFGPIMIISRFADGDVDAVLSRANATEFGLASGVFTRDINKALYVSDKLQAGTVFINTYNKTDVAAPFGGFKQSGFGKDLGEAALNEYLRIKTVTFEY
On to B3, for which the binding result is “no binding”.
